Measurements reported in PubChem BioAssay AID588649 (The Scripps Research Institute Molecular Screening Center, 2011).
The hits were mostly taken out for another list; the other results follow. Calls of active or inactive are those of the source. Cut-off read from the data, not from the text of the source: active = inhibition above about 40%; inactive = the rest.

Tested on: Fam108b (ABHD17B) [Mus musculus]
Experiment: inhibition of mouse Fam108b by HTS hits, late-stage follow-up, biochemical, gel-based ABPP, soluble recombinant form (AID 588649)
Settings: fluorophosphonate probe, at 20 µM, active compounds read high

Structure (SMILES): C=CCn1c(=S)[nH]c2scc(-c3ccco3)c2c1=O
- inhibition: inactive: 25%
